# From patent publication US8545876B1, “Modified drugs for use in liposomal nanoparticles” (The University of British Columbia, priority 2008, dated 2013)
# Assay: Loading efficiency into LN (ammonium sulfate gradient)
# Type: physicochemical
Structure (SMILES),amount of derivative associated with the LN carrier (absence of the ammonium sulfate (pH) gradient),"loading efficiency (prednisone derivatives, DSPC/Chol LN, after 15 min of incubation at 60° C., ammonium sulfate gradient, external pH 5) [%]","loading efficiency (DMPC/Chol LN, within 15 min of incubation at 60° C., drug-to-lipid ratio 0.16 wt/wt) [%]"
CN1CCN(CCCC(=O)OCC(=O)[C@@]2(O)CC[C@H]3[C@@H]4CCC5=CC(=O)C=C[C@]5(C)[C@H]4C(=O)C[C@@]32C)CC1 [N-methyl-piperazinyl-butanoic acid ester],no measurable amount,100,–
COc1cc([C@@H]2c3cc4c(cc3[C@@H](O[C@@H]3O[C@@H]5CO[C@@H](C)O[C@H]5[C@H](O)[C@H]3O)[C@H]3COC(=O)[C@H]23)OCO4)cc(OC)c1OC(=O)CCCN1CCN(C)CC1 [etoposide derivative],–,–,100
